# Measurements reported in the supplement of paper PMC12578635.
# ± gives the standard deviation of the averaged measurements. The list shows a part of the results. Repeats are few or missing, and single values can be far off.
# Tested on: RAW 264.7 macrophages infected with S. aureus JE2-lux
# Assay: host macrophage viability (CellTiter-Fluor) relative to DMSO vehicle; higher = more viable host cells
# Conditions: 10 µM; treatment time 4 h; gentamicin 50 µg/ml
row,SMILES,host macrophage viability
1,O=C(NCCCN1CCOCC1)c1cc2n(n1)CCCN(Cc1ccc(F)cc1)C2=O,102%
2,COC(=O)c1ccc(CSc2nc(-c3ccc(F)cc3)nc3c2c(=O)n(C)c(=O)n3C)o1,111 ± 2.1%
3,Cc1cc2nc(C3CCCN3C(=O)c3snnc3C)[nH]c2cc1C (configuration not stated),115%
4,CN1CCN(c2ncnc3scc(-c4ccc(Cl)cc4)c23)CC1,128%
5,COc1ccc(NC(=O)c2c(N)c(C(=O)c3ccc(OC)cc3)n3ccccc23)cc1,136%
6,CCC(NC(=O)Cn1c(-c2cccs2)cc2cccnc21)c1c(C)nn(CC)c1C (configuration not stated),113%
7,COc1ccc(-c2cc(C(F)(F)F)n3nc(C(=O)N4CCN(c5ccccc5)CC4)nc3n2)cc1,143%
8,O=S(=O)(/N=C/c1c(O)ccc2ccccc12)c1cccs1,107%
9,c1ccc2c(c1)CCN(c1nc3cc4c(cc3s1)OCCO4)C2,106 ± 1.2%
10,COC(=O)Cc1c(-c2ccccc2)c2cc(Br)ccc2[nH]c1=O,104%
11,Clc1ccc(-c2nnc(C(c3ccccc3)N3CCc4ccccc4C3)o2)cc1 (configuration not stated),127%
12,Cn1c(=O)[nH]c(=O)c2c1nc(N1CCOCC1)n2CCCSc1nc2ccccc2o1,116%
13,COCCn1c(SCC(=O)Nc2ccc(C(=O)OC)cc2)nc2cccnc21,102%
14,CCS(=O)(=O)c1ccc(C(=O)Nc2nc3c(OC)ccc(C)c3s2)cc1,120%
15,COc1ccc(NC(=O)N(Cc2cc3cc(C)ccc3n3nnnc23)CC2CCCO2)cc1 (configuration not stated),93.6%
16,CCSc1ccccc1C(=O)Nc1nc2c(s1)COc1ccccc1-2,132%
17,Cc1ccc(S(=O)(=O)Nc2ccccc2C(=O)Nc2cccc3c2C(=O)c2ccccc2C3=O)cc1,127%
18,CC(=O)Nc1ccc(NC(=O)CN2CCC3(CC2)NC(=O)N(C)C3=O)cc1,106%
19,COc1ccccc1N1CC(C)Cn2c1nc1c2c(=O)n(CC(N)=O)c(=O)n1C (configuration not stated),109%
20,O=C(CNC(=O)c1ccccc1)N/N=C1\C(=O)Nc2ccc([N+](=O)[O-])cc21,135%
21,COc1cccc(C(=O)COC(=O)c2cc(O)nc3ccccc23)c1,127%
22,Cc1nc(N2CCN(c3ccccc3)CC2)[nH]c(=O)c1CCC(C)C,123%
23,COC(=O)c1c(NC(=O)CCc2ccccc2)sc2c1CC(C)(C)NC2(C)C,113%

row,SMILES,host macrophage viability
1,Cc1sc2ncnc(NC3CCCCC3)c2c1S(=O)(=O)N1CCCCC1,117%
2,CCOc1cccc(-c2csc(NC(=O)c3cnc(SC)nc3)n2)c1,112%
3,COc1ccc(C2CC(c3cccs3)=NN2C(=O)COc2cccc3c2CCNC3=O)cc1 (configuration not stated),117%
4,CC(NC(=O)CC1Nc2cccc3cccc(c23)NC1=O)c1ccccc1 (configuration not stated),129%
5,COc1cccc(-c2noc(-c3cccn4c(=O)c5ccccc5nc34)n2)c1OC,126%
6,c1cnc(N2CCN(c3nn4nnnc4c4ccccc34)CC2)nc1,108%
7,CCOC(=O)C(C)Sc1nc2c(c(=O)[nH]c(=O)n2C)n1CCc1ccccc1 (configuration not stated),125%
8,COc1ccc(C2CC(c3cccc(NS(C)(=O)=O)c3)=NN2C(=O)c2ccco2)cc1 (configuration not stated),110%
9,CCOC(=O)c1c(C)oc2c1C1=NC(C)(C)CN1C=N2,124%
10,O=C(CSc1nnc2c(n1)-c1cccc3cccc-2c13)NNC(=O)c1ccc(Cl)cc1,103%
11,CN(C)c1cccc(C(=O)Nc2nnc(-c3ccccc3)[nH]2)c1,103%
12,CCCc1cc(=O)[nH]c2nnc(SCc3ccc(C(=O)OC)o3)n12,101%
13,COC(=O)c1cc2c(cc1NC(=O)c1cc3cccc(OC)c3oc1=O)OCCO2,119%
14,Cn1/c(=N\C(=O)CCS(=O)(=O)c2ccc(F)cc2)sc2c(Cl)ccc(Cl)c21,129%
15,Cc1cc2cc3c(N)c(C(=O)N4CCc5ccccc54)sc3nc2cc1C,101%
16,O=C(O)c1ccc(CNC2=NS(=O)(=O)c3ccccc32)cc1,120%
17,Cc1ccc2cccc(S(=O)(=O)Nc3ccc(C(=O)O)cc3)c2n1,130%
18,CN(Cc1ccccc1)C(=O)Cn1cccc1-c1nc(-c2ccc(Cl)cc2)cs1,107%
19,Cc1cc2nnc(SCC(=O)NCc3ccco3)n2c2ccccc12,105 ± 2.8%
20,COc1ccc(OC)c(-n2c(=S)[nH]c3cc(C(=O)NCc4ccco4)ccc3c2=O)c1,115%
21,CC(=O)Nc1ccc2nc(NC(=O)c3cc(Cl)sc3Cl)sc2c1,116 ± 8.6%
22,Cn1c(=O)c2sccc2n2c(CCCC(=O)NCCc3c[nH]c4ccccc34)nnc12,119%
23,NC(=O)c1sc(=S)n(-c2ccccc2)c1N,102 ± 3.7%

# Pulled by compound from above, 2 records:
row,SMILES,host macrophage viability
17,Cc1ccc2cccc(S(=O)(=O)Nc3ccc(C(=O)O)cc3)c2n1,130%
12,CCCc1cc(=O)[nH]c2nnc(SCc3ccc(C(=O)OC)o3)n12,101%

# (further entries)

row,SMILES,host macrophage viability
1,COc1ccc(NC(=O)CSc2nnc(-c3cccnc3)o2)c(OC)c1,124%
2,Cn1c2ccc(Br)cc2c2nnc(SCc3nc4ccccc4[nH]3)nc21,123%
3,CCOC(=O)CSc1nc2c([nH]1)c(=O)n(C)c(=O)n2C,107%
4,Cc1nc2cc(NC(=O)Nc3ccc(Cl)cc3)ccc2n1-c1ccccc1,105%
5,COc1cccc(Nc2nc(NC3CCN(Cc4ccccc4)CC3)nc3c2cnn3C)c1,93.3%
6,Nc1c(C(=O)NCc2ccco2)nnn1Cc1cccc(Cl)c1,100%
7,COc1ccc(C(=O)CSc2nc(=O)[nH]c3c2CCCC3)cc1,119%
8,CCSc1nnc(NC(=O)CCn2c(=O)oc3ccccc32)s1,119 ± 13%
9,COc1ccc(-n2nc3c(c2NC(=O)C2(c4ccc(Cl)cc4)CCCC2)CS(=O)C3)cc1 (configuration not stated),116%
10,Cc1ccccc1OCCCC(=O)Nc1sc2c(c1C#N)CCC(C)C2 (configuration not stated),127%
11,COc1ccc(NC(=O)Cn2cnc3c(cnn3-c3ccc(F)cc3)c2=O)cc1OC,109 ± 10%
12,Cc1ccc2c(c1)C(=O)OC(C(=O)Nc1cc(C)on1)C2 (configuration not stated),113%
13,COc1ccc(C(NC(=O)c2cnc(C(C)(C)C)nc2)c2ccncc2)cc1 (configuration not stated),105%
14,CC1CCc2c(sc3ncn(C4CCN(C(=O)c5ccco5)CC4)c(=O)c23)C1 (configuration not stated),127%
15,CCC(=O)NCCSc1ncc(-c2ccccc2)[nH]1,118%
16,CCN1C(=O)c2cccc3c(NC(=O)Nc4ccc(Cl)cc4)ccc1c23,141%
17,COc1cc(/C=N/NC(=O)CCc2c(C)n[nH]c2C)ccc1O,114%
18,c1c2c(cc3sc(N4CCOCC4)nc13)OCCO2,111 ± 5.7%
19,COc1cccc(Oc2coc3cc(OCC(N)=O)ccc3c2=O)c1,134%
20,Cc1cc2ccccc2c(=O)n1CC(=O)NCC1COc2ccccc2O1 (configuration not stated),118%
21,O=C(NNc1nc2c(F)cccc2s1)c1nc2ccccc2s1,98.4 ± 9.2%
